Test results as given in patent publication US20210277402A1.
Results are given in words; binding and its absence hold for the method and conditions named. In cells and extracts the contact can be indirect. Some binding calls cover weakened binding; strength is not graded here. Where a sequence is shown, tags or fusion partners need not be part of it.

Chains of the proteins cited; added tags and fusions are not shown.
UniProt Q8BG87: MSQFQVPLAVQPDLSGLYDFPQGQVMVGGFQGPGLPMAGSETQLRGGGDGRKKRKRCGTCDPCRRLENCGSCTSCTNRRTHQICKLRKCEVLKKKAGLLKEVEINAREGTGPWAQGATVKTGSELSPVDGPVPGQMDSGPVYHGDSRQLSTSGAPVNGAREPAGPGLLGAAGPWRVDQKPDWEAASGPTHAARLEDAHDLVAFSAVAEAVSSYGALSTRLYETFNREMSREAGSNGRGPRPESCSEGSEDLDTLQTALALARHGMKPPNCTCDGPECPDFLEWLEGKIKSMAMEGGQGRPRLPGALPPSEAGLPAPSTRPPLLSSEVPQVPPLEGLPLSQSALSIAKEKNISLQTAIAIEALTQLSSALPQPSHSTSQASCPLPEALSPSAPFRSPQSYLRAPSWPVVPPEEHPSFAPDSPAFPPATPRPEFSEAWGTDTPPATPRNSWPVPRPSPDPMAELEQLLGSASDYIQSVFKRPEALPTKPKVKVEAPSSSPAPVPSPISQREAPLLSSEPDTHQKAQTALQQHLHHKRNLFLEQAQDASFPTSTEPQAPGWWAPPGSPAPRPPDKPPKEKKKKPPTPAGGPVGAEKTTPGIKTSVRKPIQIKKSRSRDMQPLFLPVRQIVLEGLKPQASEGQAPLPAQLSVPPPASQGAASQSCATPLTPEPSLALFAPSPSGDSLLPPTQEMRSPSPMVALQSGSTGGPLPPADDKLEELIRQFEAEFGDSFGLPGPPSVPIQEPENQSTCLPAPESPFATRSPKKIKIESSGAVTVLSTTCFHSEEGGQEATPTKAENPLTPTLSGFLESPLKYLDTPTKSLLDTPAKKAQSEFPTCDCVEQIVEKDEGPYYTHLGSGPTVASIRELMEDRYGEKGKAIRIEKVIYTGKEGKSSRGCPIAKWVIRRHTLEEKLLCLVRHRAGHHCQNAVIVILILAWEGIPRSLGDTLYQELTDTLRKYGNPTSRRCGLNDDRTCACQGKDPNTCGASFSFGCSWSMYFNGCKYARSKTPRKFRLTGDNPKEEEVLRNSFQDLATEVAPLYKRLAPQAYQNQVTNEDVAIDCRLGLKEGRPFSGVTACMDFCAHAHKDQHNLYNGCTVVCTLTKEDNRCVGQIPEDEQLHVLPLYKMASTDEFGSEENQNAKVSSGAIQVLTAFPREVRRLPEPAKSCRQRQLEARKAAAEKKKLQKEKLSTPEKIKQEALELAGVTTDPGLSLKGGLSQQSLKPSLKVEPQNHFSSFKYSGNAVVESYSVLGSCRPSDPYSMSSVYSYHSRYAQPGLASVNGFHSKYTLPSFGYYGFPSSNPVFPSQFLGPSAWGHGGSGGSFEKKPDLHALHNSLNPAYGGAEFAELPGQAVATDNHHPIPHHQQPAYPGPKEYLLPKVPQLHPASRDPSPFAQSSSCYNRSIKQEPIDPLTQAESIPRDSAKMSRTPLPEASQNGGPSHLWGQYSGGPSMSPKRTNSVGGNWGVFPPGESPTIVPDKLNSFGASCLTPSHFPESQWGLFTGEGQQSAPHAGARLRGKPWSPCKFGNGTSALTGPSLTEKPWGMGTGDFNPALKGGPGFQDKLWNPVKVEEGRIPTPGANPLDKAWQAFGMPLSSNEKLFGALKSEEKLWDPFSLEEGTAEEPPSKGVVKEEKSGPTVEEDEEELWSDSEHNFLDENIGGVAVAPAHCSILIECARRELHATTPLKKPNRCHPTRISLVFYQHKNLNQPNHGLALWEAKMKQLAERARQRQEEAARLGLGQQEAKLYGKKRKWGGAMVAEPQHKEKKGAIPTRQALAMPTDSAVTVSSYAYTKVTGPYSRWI
UniProt Q3URK3: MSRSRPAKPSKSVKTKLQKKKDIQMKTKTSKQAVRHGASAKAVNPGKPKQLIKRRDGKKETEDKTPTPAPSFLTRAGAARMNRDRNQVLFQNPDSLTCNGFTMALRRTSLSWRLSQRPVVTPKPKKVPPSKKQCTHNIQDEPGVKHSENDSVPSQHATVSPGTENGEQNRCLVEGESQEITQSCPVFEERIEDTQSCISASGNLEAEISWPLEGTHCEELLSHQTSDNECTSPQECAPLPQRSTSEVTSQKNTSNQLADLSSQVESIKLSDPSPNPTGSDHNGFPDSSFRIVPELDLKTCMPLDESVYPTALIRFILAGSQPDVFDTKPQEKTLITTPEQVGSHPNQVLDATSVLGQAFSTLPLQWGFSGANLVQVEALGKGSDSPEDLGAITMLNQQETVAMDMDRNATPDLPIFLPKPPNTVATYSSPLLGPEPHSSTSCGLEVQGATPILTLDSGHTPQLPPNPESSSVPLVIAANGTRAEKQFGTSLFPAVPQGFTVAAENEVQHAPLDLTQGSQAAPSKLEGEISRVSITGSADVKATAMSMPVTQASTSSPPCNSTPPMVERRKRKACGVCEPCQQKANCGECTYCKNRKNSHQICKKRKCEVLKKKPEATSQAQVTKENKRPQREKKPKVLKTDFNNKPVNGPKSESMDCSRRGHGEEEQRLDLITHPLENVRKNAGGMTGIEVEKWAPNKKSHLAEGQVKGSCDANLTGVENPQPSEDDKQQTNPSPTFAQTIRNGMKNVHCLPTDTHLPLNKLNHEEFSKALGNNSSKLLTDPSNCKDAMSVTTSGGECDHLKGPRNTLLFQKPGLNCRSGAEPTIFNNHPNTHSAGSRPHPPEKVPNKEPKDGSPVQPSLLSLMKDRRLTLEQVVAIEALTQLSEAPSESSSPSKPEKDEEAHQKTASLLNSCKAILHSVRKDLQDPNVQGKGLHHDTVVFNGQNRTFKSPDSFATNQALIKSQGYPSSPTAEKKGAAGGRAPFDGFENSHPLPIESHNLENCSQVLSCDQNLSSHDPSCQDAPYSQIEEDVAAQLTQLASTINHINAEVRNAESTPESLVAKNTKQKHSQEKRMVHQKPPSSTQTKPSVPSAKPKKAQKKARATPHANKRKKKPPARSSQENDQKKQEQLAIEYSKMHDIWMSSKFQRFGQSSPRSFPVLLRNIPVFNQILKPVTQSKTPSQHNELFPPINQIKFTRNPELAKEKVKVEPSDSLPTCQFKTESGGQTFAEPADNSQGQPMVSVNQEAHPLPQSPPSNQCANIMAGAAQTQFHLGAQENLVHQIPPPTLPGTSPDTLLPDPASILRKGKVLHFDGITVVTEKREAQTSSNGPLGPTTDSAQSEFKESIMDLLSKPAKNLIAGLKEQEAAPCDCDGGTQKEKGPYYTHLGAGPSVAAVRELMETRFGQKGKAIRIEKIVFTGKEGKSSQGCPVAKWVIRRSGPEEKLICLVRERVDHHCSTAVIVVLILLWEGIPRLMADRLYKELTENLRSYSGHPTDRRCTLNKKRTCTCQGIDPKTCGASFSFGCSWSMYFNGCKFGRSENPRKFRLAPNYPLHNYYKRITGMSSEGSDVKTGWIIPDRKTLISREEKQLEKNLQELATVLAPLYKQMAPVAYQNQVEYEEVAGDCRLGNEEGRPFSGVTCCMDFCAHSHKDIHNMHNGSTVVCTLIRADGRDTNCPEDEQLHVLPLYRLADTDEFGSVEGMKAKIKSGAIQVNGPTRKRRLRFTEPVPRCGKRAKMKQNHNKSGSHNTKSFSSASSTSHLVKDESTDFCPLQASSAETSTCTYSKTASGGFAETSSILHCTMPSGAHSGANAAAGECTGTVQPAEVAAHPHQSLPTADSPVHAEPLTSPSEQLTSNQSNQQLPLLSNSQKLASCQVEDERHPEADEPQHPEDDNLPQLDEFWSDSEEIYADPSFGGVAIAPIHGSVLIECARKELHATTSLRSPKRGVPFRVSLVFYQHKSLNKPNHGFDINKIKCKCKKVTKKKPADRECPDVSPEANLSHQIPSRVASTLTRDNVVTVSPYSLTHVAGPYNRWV

How the values were obtained:
Tet3 (mouse) = Tet3 (mouse) (UniProt Q8BG87); test: co-immunoprecipitation from mouse HSC lysates (FIG. 10B)
[1] = biological target: Ten-eleven translocation methylcytosine dioxygenase 1 (Tet1) (mouse) (UniProt Q3URK3); test: co-immunoprecipitation from mouse HSC lysates (FIG. 10A)

B1: O-linked N-acetylglucosamine (O-GlcNAc) transferase OGT (enzyme, mouse, UniProt Q8CGY8 2-1046, looked up)
chain: ASSVGNVADSTEPTKRMLSFQGLAELAHREYQAGDFEAAERHCMQLWRQEPDNTGVLLLLSSIHFQCRRLDRSAHFSTLAIKQNPLLAEAYSNLGNVYKERGQLQEAIEHYRHALRLKPDFIDGYINLAAALVAAGDMEGAVQAYVSALQYNPDLYCVRSDLGNLLKALGRLEEAKACYLKAIETQPNFAVAWSNLGCVFNAQGEIWLAIHHFEKAVTLDPNFLDAYINLGNVLKEARIFDRAVAAYLRALSLSPNHAVVHGNLACVYYEQGLIDLAIDTYRRAIELQPHFPDAYCNLANALKEKGSVAEAEDCYNTALRLCPTHADSLNNLANIKREQGNIEEAVRLYRKALEVFPEFAAAHSNLASVLQQQGKLQEALMHYKEAIRISPTFADAYSNMGNTLKEMQDVQGALQCYTRAIQINPAFADAHSNLASIHKDSGNIPEAIASYRTALKLKPDFPDAYCNLAHCLQIVCDWTDYDERMKKLVSIVAEQLEKNRLPSVHPHHSMLYPLSHGFRKAIAERHGNLCLDKINVLHKPPYEHPKDLKLSDGRLRVGYVSSDFGNHPTSHLMQSIPGMHNPDKFEVFCYALSPDDGTNFRVKVMAEANHFIDLSQIPCNGKAADRIHQDGIHILVNMNGYTKGARNELFALRPAPIQAMWLGYPGTSGALFMDYIITDQETSPAEVAEQYSEKLAYMPHTFFIGDHANMFPHLKKKAVIDFKSNGHIYDNRIVLNGIDLKAFLDSLPDVKIVKMKCPDGGDNPDSSNTALNMPVIPMNTIAEAVIEMINRGQIQITINGFSISNGLATTQINNKAATGEEVPRTIIVTTRSQYGLPEDAIVYCNFNQLYKIDPSTLQMWANILKRVPNSVLWLLRFPAVGEPNIQQYAQNMGLPQNRIIFSPVAPKEEHVRRGQLADVCLDTPLCNGHTTGMDVLWAGTPMVTMPGETLASRVAASQLTCLGCLELIAKSRQEYEDIAVKLGTDLEYLKKIRGKVWKQRISSPLFNTKQYTMELERLYLQMWEHYAAGNKPDHMIKPVEVTESA
binding (Tet3 (mouse)): binds | binding [1]: binds
